Results: article PMC9546861 (2022)
End groups of sequences in plain letters are not given here.

What was measured:
[1] = peptide made by a vendor (Fmoc solid-phase peptide synthesis; 2-chlorotrityl resin ([…]); DIC/oxyma); details: whole synthesis, LCMS, scale 2 µmol
[2] = general procedure: Fmoc solid-phase peptide synthesis; 2-chlorotrityl resin ([…]); DIC/oxyma; details: whole synthesis, LCMS, scale of the general procedure 2 µmol (crude high-throughput peptides)

Sequence	crude LC-MS purity [1]	final LC-MS purity [2]
FNFSGYGMGHOOJ	72.4%	
ANFSGYGMGHOOJ	79.5%	
FNASGYGMGHOOJ	69.6%	
FSIVGOOJ		>98%
